Laboratory results as given in paper doi:10.1101/554881.
No constants are given. Whether binding was seen depends on the method and setting. In cells and extracts the contact can be indirect. Some entries that bind do so weakly or less than the wild type.

The chains behind the UniProt entries cited, without tags or fusion partners. Where a name states a change or a piece, a line headed by the entry shows the natural chain unless it says otherwise. Residues count along the entry.
UniProt Q5S007: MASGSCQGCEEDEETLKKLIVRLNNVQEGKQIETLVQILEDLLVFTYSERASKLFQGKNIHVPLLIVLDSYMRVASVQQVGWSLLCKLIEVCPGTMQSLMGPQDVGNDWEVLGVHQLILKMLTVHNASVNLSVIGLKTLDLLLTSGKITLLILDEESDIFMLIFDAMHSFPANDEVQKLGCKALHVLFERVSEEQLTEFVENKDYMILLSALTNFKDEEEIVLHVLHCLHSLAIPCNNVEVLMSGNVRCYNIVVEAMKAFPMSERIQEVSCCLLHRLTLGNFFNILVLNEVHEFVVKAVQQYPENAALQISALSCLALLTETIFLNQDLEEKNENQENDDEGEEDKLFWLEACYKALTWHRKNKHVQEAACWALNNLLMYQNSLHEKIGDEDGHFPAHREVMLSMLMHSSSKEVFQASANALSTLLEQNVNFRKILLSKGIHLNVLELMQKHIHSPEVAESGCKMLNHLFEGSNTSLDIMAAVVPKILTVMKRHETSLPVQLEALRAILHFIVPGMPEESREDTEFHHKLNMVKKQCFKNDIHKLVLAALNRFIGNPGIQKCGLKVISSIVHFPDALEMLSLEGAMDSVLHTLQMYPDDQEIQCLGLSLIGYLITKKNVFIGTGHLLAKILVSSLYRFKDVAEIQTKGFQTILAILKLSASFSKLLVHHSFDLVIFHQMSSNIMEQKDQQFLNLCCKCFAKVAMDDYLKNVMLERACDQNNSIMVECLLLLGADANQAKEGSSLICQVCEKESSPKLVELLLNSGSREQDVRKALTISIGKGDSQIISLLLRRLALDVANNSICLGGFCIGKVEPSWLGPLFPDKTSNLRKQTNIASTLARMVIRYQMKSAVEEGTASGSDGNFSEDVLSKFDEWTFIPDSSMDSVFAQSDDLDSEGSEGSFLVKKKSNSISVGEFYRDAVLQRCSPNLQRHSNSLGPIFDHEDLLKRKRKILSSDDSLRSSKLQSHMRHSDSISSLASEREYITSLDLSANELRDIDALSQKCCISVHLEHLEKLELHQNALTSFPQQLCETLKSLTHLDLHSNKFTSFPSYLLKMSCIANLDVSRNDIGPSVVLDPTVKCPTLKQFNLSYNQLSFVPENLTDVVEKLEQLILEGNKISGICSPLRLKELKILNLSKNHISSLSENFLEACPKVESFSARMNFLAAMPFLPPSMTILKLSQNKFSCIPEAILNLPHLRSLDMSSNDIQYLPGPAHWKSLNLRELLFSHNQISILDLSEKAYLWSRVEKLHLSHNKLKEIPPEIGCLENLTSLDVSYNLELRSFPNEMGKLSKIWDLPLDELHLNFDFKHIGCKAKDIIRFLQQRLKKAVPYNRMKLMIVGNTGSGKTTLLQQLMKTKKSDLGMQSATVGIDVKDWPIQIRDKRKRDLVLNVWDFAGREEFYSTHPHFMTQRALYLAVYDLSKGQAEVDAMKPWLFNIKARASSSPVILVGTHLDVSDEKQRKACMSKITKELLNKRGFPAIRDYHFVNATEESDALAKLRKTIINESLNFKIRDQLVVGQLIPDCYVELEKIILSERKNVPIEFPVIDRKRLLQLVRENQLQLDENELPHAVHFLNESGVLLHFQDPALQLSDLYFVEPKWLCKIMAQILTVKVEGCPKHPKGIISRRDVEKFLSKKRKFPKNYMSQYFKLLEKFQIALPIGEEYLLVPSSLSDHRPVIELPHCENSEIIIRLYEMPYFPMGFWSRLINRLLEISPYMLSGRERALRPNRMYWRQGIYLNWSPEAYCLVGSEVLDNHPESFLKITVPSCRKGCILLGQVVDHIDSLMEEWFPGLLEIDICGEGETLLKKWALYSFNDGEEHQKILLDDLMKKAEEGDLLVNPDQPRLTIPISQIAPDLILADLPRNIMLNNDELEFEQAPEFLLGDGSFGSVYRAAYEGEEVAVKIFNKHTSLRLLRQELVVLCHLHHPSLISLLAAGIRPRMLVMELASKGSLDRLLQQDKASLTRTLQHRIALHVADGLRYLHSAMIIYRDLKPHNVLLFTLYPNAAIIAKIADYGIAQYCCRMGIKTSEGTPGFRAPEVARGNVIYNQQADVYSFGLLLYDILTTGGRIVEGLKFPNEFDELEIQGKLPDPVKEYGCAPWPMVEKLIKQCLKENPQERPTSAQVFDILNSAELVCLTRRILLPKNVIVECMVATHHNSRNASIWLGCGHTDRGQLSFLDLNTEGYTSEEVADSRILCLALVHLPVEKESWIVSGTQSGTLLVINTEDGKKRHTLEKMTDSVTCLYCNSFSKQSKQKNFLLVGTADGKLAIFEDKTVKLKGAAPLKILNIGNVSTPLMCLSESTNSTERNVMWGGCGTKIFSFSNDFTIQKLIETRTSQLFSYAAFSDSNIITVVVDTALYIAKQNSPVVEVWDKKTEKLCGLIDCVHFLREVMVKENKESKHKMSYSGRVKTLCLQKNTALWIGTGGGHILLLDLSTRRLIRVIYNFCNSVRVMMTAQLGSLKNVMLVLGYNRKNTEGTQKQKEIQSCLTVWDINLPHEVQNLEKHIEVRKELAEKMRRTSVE
Myc-LRRK2 Roc: residues 1328-1511 of Q5S007
Myc-LRRK2 COR: residues 1546-1740 of Q5S007
Myc-LRRK2 kinase domain: residues 1879-2138 of Q5S007
UniProt Q9UBN7: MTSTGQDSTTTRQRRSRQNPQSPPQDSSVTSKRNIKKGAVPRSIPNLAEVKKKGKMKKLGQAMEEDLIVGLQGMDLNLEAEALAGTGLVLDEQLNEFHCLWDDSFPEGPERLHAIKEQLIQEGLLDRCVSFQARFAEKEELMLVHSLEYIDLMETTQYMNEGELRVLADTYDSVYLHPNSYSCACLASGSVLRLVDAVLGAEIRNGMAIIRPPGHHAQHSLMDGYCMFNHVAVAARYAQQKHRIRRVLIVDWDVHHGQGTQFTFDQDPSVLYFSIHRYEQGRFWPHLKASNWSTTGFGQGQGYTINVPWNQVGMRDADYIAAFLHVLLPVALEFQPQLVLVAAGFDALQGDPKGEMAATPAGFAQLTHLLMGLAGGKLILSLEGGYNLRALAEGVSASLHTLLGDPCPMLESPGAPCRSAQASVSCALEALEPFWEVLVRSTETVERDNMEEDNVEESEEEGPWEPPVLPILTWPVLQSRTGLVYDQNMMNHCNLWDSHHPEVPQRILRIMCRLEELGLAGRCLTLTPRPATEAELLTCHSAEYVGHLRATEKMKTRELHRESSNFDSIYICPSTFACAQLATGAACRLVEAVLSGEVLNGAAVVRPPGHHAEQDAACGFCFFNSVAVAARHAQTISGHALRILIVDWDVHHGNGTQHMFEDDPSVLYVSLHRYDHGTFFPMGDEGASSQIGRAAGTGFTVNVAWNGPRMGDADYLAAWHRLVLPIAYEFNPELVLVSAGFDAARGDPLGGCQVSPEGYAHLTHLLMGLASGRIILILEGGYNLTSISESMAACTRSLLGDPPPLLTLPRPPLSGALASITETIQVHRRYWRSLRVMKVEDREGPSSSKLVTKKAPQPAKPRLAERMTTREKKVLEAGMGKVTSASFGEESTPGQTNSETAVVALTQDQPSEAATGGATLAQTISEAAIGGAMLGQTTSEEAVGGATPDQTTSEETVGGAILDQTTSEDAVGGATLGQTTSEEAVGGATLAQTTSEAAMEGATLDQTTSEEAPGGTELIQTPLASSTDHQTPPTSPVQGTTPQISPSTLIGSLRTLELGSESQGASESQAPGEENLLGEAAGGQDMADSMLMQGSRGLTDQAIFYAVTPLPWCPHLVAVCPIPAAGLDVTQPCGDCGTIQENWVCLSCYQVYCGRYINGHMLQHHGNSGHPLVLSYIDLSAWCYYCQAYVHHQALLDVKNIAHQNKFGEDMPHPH

Experiments:
Assay in all cases: co-IP
[1] = molecular target: myc-LRRK2 D1994A (kinase dead) (human) (UniProt Q5S007)
myc-LRRK2 G2019S (human) = myc-LRRK2 G2019S (human) (UniProt Q5S007)
[2] = molecular target: myc-tagged LRRK2 (wild type) (human) (UniProt Q5S007)
Myc-LRRK2 COR (human) = Myc-LRRK2 COR (human) (UniProt Q5S007)
Myc-LRRK2 Roc (human) = Myc-LRRK2 Roc (human) (UniProt Q5S007)
[3] = molecular target: Myc-LRRK2 kinase domain (human) (UniProt Q5S007)

Substance	binding [1]	binding (myc-LRRK2 G2019S (human))	binding [2]	binding (Myc-LRRK2 COR (human))	binding (Myc-LRRK2 Roc (human))	binding [3]
FLAG-HDAC6 full-length (wild type) (from UniProt Q9UBN7 1-1215) (enzyme)	binds	binds	binds	–	–	–
untagged HDAC6 (from UniProt Q9UBN7 1-1215) (enzyme)	–	–	binds	binds weakly	binds	no binding
